At least one compound was matched to its structure with a doubt left. Non-standard residues stand in square brackets, D forms with d. Residues, ends and D or L forms follow the SMILES beside them. *: point of attachment. Phe(4-amidino) = N=C(N)c1ccc(C[C@H](N)C(=O)O)cc1; NMeCha = CN[C@@H](CC1CCCCC1)C(=O)O; Cha = N[C@@H](CC1CCCCC1)C(=O)O; Agp = N=C(N)NC[C@H](N)C(=O)O; Alloc = C=CCOC(=O)*
Biological target: T1, human factor VIIa and TF (Homo sapiens, UniProt P08709)
T1 construct: human factor VIIa and TF
Assay: Determination of Ki for FVIIa inhibition (chromogenic assay, substrate S-2288)
Type: biochemical
Details: human factor VIIa 5 nM and TF 10 nM, S-2288 500 μM, 25° C., 15 minute preincubation, pH 8.15; read-out: Factor VIIa inhibitory activities Ki
Method: The inhibitory activity (Ki) of each compound towards […] activity was determined using a chromogenic assay essentially as described previously. J. A. Ostrem, F. Al-Obeidi, P. Safar, A. Safarova, S. K. Stringer, M. Patek, M. T. Cross, J. Spoonamore, J. C. LoCascio, P. Kasireddy, D. S. Thorpe, N. Sepetov, M. Lebi, P. Wildgoose, P. Strop, "Discovery of a novel, potent, and specific family of factor Xa inhibitors via combinatorial chemistry". Biochemistry 37 (1998) 1053-1059. Kinetic assays were conducted at 25° C. in half-area microtiter plates (Costar Corp., Cambridge, Mass.) using a kinetic plate reader (Molecular Devices Spectramax 250). A typical assay consisted of 25 μl of human factor VIIa and TF (5 nM and 10 nM, respective final concentration) combined with 40 μl of inhibitor dilutions in 10% DMSO/TBS-PEG buffer (50 mM Tris, 15 mM NaCl, 5 mM CaCl2; 0.05% PEG 8k, pH 8.15). […] The apparent inhibition constants were calculated from the slope of the progress curves during the linear part of the time course, typically between 1 and 5 min following addition of substrate to the assay. The true Ki was subsequently determined for each compound by correcting for substrate concentration (S) and the Km using the formula Ki=Ki app/(1+(S)/Km). […]

Sequences of proteins named here, by UniProt entry; tags and fusion partners are left off. Residues count along the entry.
UniProt P08709, 61-212 limits assumed: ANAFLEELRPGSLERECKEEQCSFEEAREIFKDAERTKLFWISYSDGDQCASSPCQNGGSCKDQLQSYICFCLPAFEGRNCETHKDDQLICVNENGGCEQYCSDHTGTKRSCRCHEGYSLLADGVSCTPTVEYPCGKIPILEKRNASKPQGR
UniProt P08709, 213-466 limits assumed: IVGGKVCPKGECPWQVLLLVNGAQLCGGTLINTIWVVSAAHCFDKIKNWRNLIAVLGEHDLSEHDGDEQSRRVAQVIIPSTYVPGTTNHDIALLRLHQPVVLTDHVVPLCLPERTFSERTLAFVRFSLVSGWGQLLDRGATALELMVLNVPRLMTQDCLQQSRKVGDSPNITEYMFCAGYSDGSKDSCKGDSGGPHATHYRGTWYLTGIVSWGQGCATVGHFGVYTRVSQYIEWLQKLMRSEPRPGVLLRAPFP

SMILES | Ki [nM]
C=CCOC(=O)N[C@@H](Cc1ccc(C(=N)N)cc1)C(=O)N[C@@H](CCC(=O)O)C(=O)N[C@@H](CNC(=N)N)C(=O)N[C@@H](CC1CCCCC1)C(N)=O [Alloc-pAph-Glu-Dap[--C(=NH)--NH2 ]-Cha-NH2] (Alloc-[Phe(4-amidino)]E[Agp][Cha]-NH2) | 12
C=CCOC(=O)N[C@@H](Cc1ccc(C(=N)N)cc1)C(=O)N[C@@H](CCC(=O)O)C(=O)N[C@@H](CC(N)=O)C(=O)N(C)[C@@H](CC1CCCCC1)C(N)=O [Alloc--pAph--Glu--Asn--(CH3 --)Cha--NH2] (Alloc-[Phe(4-amidino)]EN[NMeCha]-NH2) | 62
